From paper PMC11157866
These are yes or no findings as the source states them, for the method shown. In cells and extracts the contact can be indirect. Some entries that bind do so weakly or less than the wild type.

Sequences of proteins named here, by UniProt entry; tags and fusion partners are left off.
UniProt Q86U44: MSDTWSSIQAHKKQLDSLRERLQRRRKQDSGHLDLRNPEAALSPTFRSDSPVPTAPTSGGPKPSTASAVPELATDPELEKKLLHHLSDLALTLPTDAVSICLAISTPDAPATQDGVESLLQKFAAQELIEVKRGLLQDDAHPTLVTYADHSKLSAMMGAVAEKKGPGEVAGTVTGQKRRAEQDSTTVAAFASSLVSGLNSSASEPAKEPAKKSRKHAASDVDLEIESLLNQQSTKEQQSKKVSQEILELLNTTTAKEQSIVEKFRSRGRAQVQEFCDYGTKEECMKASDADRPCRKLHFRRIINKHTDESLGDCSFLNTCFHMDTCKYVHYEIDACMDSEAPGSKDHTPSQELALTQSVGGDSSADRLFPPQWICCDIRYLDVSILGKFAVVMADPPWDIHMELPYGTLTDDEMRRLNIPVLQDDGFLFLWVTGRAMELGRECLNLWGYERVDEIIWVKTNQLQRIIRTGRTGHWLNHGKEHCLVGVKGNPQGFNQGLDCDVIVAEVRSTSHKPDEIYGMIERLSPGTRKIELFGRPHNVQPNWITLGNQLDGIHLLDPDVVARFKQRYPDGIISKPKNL

Target: T1, melanoma cell adhesion molecule (MCAM) (human (endogenous in MG63 and U2OS)) (UniProt P43121)
T1 sequence: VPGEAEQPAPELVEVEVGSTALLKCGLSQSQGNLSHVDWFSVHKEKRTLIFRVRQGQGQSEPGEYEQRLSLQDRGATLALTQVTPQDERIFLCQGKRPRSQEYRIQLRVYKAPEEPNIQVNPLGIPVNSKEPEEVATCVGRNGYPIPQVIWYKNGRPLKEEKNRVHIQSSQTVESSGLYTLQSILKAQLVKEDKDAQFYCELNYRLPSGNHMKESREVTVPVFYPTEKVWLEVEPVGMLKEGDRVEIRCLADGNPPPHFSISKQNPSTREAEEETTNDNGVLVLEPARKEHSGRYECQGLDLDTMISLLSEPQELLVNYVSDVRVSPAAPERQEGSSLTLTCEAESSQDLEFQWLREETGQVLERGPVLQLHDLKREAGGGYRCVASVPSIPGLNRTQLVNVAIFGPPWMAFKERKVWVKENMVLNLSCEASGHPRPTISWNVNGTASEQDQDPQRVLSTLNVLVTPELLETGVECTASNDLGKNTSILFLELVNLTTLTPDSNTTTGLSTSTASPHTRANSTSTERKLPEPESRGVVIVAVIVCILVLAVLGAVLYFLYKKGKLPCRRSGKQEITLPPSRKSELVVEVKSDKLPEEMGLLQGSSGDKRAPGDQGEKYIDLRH
Assay: co-IP; Pierce Co-IP kit; MG63 and U2OS cells lysed in IP lysis buffer; supernatants incubated 6 h with G-agarose beads coated with antibody against METTL2 (so in the source) or MCAM; detection by western blot

methyltransferase 3 (METTL3) (from UniProt Q86U44 1-580)
binding: binds
